Values quoted from earlier work as cited in patent publication US7994210B2, “Method of treating Down Syndrome” (priority 2004, dated 2011).
At least one compound was matched to its structure with a doubt left.

Assays:
[1] = rat, over a wide therapeutic range
[2] = system: human neuroblastoma cell cultures; settings: studies at the NIA
beta-amyloid peptide = settings: in vivo in rodents; studies at the NIA
[3] = system: beta-amyloid precursor protein (beta-APP)

CN1CC[C@@]2(C)c3cc(OC(=O)Nc4ccccc4)ccc3N(C)[C@@H]12 [Phenserine, (−)-N-phenylcarbamoyl eseroline]
memory and learning [1]: increase memory and learning in the rat | formation of beta-amyloid peptide [2]: reduces the formation of beta-amyloid peptide | formation of beta-amyloid peptide (beta-amyloid peptide): reduces the formation of beta-amyloid peptide | production/formation of β-APP [3]: inhibit the formation of the beta-amyloid precursor protein (beta-APP)
